For data set [1], the target named is IMP1 KH1KH2DD K294D,E295D (Homo sapiens) (UniProt Q9NZI8). Kind of data set: ITC. The settings on record: 10 mM sodium phosphate pH 7.4, 50 mM NaCl, ITC 25 C with 2 mM TCEP, RNAsin 40-100 u/ml, recombinant protein, residues 194-369, protein details: 6xHis-GST removed by TEV.
The target in data set [2] is IMP1 KH1DDKH2 K213D,E214D (Homo sapiens) (UniProt Q9NZI8). Kind of data set: NMR. The settings on record: fast exchange; 10 mM sodium phosphate pH 7.4, 50 mM NaCl; NMR 0.5 mM TCEP; RNAsin 40-100 u/ml; recombinant protein; residues 194-369; protein details: 6xHis-GST removed by ….
Data set [3] shares this target. Put plainly: ITC. The settings on record: 10 mM sodium phosphate pH 7.4, 50 mM NaCl; ITC 25 C with 2 mM TCEP; RNAsin 40-100 u/ml; recombinant protein; residues 194-369; protein details: 6xHis-GST removed by TEV.

By UniProt entry, the sequences of proteins in these tests, tags left out. Residues count along the entry.
UniProt Q9NZI8, 194-369 K294D/E295D: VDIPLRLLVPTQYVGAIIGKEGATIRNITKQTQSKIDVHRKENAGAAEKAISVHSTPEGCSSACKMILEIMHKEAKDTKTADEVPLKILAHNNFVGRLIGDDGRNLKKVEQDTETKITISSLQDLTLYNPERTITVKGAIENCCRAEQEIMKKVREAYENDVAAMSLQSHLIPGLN
UniProt Q9NZI8, 194-369 K213D/E214D: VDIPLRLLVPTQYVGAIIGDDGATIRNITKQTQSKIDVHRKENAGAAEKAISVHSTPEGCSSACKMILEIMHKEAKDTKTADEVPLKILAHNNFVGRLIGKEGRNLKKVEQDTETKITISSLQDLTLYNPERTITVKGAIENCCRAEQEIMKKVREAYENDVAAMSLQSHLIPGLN

For some of these results: A weaker result is weaker than the reference pair of the same experiment. For some of these results: For at least one entry, the source does not settle the construct or the ends of the probe.

With UCCAU, the Kd in data set [1] is 28 µM.
As for UCCCG, in data set [2], the binding result is recorded as “binds more weakly”.
On to UCCUU, for which the Kd in data set [1] is greater than 200 µM.
Consider UCGGU, for which the Kd in data set [1] (RNA may self-pair) is 14 µM.
As for UUACG, in data set [3], the equilibrium dissociation constant (Kd) was determined as 114 µM.
The same measure, in the same setting: then UUCAG, with greater than 200 µM.
With UUCGG, the Kd in data set [3] was greater than 200 µM.
Same read-out and setting: under UUCUG stands greater than 200 µM; under UUGCG, 90 µM.
Still for that read-out and setting: then UUUCG, with 104 µM.

For orientation: Kd means the equilibrium constant for the complex coming apart.

Values taken from PMC6486635.
